Measurements published in PMC8494447.
No constants are given. Whether binding was seen depends on the method and setting. Binding seen in cells or lysates may run through a third protein. These calls come from enrichment with a bait or labelling near it, and not all partners need be listed.

Amino acid sequences for entries named in this document (tags omitted).
UniProt Q13546: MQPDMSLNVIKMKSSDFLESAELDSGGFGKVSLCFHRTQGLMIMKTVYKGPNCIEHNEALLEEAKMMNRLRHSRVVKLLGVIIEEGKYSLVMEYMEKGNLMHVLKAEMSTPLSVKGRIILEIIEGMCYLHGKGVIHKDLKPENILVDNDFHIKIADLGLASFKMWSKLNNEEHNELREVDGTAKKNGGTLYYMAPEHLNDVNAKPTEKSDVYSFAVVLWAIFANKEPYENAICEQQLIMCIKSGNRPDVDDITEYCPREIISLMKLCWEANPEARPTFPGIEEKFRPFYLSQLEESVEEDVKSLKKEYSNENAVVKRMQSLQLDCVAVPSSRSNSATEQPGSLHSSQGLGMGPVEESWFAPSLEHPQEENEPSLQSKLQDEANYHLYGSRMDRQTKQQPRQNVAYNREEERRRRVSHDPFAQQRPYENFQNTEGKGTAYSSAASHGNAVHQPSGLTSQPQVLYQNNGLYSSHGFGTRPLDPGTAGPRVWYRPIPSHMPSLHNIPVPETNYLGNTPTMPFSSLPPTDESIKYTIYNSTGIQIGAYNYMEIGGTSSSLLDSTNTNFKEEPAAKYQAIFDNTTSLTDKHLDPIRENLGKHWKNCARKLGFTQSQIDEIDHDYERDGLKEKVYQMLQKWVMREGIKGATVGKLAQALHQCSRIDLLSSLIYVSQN

B1: HSPA13, endogenous in HEK293T (protein, UniProt P48723 23-471)
chain: QQYLPLPTPKVIGIDLGTTYCSVGVFFPGTGKVKVIPDENGHISIPSMVSFTDNDVYVGYESVELADSNPQNTIYDAKRFIGKIFTAEELEAEIGRYPFKVLNKNGMVEFSVTSNETITVSPEYVGSRLLLKLKEMAEAYLGMPVANAVISVPAEFDLKQRNSTIEAANLAGLKILRVINEPTAAAMAYGLHKADVFHVLVIDLGGGTLDVSLLNKQGGMFLTRAMSGNNKLGGQDFNQRLLQYLYKQIYQTYGFVPSRKEEIHRLRQAVEMVKLNLTLHQSAQLSVLLTVEEQDRKEPHSSDTELPKDKLSSADDHRVNSGFGRGLSDKKSGESQVLFETEISRKLFDTLNEDLFQKILVPIQQVLKEGHLEKTEIDEVVLVGGSTRIPRIRQVIQEFFGKDPNTSVDPDLAVVTGVAIQAGIDGGSWPLQVSALEIPNKHLQKTNFN
B2: TAK1-binding protein 2, endogenous in HEK293T (protein, UniProt Q9NYJ8 1-693)
chain: MAQGSHQIDFQVLHDLRQKFPEVPEVVVSRCMLQNNNNLDACCAVLSQESTRYLYGEGDLNFSDDSGISGLRNHMTSLNLDLQSQNIYHHGREGSRMNGSRTLTHSISDGQLQGGQSNSELFQQEPQTAPAQVPQGFNVFGMSSSSGASNSAPHLGFHLGSKGTSSLSQQTPRFNPIMVTLAPNIQTGRNTPTSLHIHGVPPPVLNSPQGNSIYIRPYITTPGGTTRQTQQHSGWVSQFNPMNPQQVYQPSQPGPWTTCPASNPLSHTSSQQPNQQGHQTSHVYMPISSPTTSQPPTIHSSGSSQSSAHSQYNIQNISTGPRKNQIEIKLEPPQRNNSSKLRSSGPRTSSTSSSVNSQTLNRNQPTVYIAASPPNTDELMSRSQPKVYISANAATGDEQVMRNQPTLFISTNSGASAASRNMSGQVSMGPAFIHHHPPKSRAIGNNSATSPRVVVTQPNTKYTFKITVSPNKPPAVSPGVVSPTFELTNLLNHPDHYVETENIQHLTDPTLAHVDRISETRKLSMGSDDAAYTQALLVHQKARMERLQRELEIQKKKLDKLKSEVNEMENNLTRRRLKRSNSISQIPSLEEMQQLRSCNRQLQIDIDCLTKEIDLFQARGPHFNPSAIHNFYDNIGFVGPVPPKPKDQRSIIKTPKTQDTEDDEGAQWNCTACTFLNHPALIRCEQCEMPRHF

Target: SFB-RIP1 (UniProt Q13546)
Test: affinity purification with mass spectrometry; SFB-RIP1 transiently expressed in HEK293T; lysate on streptavidin Sepharose 4 h 4°C, biotin elution, then S-protein agarose overnight 4°C; nano-LC-MS/MS

Binder | binding
B1 | binds
B2 | binds
